Measured values from the supplement of paper PMC7666118.
This is one part of the list.

Sequences of proteins named here, by UniProt entry; tags and fusion partners are left off. A change or cut given only in a name is not applied to a line headed by its entry.
UniProt O00629, whole entry: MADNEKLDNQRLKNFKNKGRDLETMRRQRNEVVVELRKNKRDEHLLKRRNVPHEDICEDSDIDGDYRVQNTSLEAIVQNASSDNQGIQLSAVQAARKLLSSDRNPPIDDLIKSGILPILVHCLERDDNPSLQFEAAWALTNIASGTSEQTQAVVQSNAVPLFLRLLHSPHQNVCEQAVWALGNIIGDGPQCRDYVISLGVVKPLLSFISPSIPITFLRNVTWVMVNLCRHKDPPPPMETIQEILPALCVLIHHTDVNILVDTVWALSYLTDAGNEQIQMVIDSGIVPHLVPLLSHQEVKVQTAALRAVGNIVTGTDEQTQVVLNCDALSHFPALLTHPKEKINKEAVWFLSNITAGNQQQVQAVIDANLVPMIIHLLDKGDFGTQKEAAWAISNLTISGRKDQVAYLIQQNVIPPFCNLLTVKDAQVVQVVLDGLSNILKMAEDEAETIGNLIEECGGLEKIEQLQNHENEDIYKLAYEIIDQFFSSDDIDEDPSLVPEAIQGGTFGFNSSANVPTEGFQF
UniProt P09382, whole entry: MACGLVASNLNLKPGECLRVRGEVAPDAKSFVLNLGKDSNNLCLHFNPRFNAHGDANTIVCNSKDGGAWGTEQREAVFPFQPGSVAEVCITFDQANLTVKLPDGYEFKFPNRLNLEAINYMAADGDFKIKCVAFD
UniProt Q5SW96: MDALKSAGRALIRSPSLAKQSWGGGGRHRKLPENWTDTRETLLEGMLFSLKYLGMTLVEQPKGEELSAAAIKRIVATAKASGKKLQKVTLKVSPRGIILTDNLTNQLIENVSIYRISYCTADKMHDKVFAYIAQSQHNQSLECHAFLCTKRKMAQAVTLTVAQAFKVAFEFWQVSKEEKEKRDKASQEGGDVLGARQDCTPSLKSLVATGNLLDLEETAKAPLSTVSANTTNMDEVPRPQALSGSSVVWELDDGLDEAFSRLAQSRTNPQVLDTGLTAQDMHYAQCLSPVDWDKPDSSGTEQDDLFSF
UniProt Q5VZE5: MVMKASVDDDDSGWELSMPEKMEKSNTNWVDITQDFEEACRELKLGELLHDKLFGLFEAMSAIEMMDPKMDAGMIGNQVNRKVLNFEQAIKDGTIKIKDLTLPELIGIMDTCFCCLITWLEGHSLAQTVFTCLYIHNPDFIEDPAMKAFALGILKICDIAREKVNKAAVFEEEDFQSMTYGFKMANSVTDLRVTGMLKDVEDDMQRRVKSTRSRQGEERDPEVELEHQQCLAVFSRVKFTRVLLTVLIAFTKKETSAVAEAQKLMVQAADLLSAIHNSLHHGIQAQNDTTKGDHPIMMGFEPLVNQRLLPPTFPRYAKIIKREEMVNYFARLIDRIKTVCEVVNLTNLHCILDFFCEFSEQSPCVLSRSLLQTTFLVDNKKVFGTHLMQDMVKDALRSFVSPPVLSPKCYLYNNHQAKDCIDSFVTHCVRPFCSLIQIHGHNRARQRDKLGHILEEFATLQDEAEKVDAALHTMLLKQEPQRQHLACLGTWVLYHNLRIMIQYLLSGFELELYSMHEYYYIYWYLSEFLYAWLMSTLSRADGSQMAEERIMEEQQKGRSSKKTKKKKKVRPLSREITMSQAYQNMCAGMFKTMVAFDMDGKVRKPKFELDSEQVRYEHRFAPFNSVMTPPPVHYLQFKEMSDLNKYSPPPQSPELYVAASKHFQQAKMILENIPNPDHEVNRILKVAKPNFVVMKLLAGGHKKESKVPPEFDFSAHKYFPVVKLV
UniProt Q8N163, whole entry: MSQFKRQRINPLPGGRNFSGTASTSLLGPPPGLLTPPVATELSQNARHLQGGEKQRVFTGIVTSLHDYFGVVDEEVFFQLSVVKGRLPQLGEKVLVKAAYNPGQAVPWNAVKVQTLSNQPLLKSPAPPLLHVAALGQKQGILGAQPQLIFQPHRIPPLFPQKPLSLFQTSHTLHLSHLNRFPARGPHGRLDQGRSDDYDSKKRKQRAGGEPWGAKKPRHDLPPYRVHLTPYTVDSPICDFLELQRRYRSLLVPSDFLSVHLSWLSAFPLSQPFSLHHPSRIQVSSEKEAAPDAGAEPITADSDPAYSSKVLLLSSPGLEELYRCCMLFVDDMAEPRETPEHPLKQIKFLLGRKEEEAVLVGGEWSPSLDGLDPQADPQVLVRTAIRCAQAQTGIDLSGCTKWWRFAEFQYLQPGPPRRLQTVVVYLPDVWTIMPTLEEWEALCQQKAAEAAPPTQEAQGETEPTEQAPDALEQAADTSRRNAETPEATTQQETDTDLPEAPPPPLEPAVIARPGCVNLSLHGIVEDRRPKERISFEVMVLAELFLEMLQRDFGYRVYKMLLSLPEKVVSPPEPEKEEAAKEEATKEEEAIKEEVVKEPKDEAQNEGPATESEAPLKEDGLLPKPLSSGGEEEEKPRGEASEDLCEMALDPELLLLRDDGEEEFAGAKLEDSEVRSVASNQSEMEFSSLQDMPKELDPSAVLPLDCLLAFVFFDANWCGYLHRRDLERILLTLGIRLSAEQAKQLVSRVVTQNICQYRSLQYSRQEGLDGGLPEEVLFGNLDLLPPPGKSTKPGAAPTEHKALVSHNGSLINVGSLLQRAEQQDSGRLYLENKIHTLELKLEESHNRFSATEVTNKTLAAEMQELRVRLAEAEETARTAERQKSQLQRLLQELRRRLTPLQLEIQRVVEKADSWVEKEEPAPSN
UniProt Q8IV50: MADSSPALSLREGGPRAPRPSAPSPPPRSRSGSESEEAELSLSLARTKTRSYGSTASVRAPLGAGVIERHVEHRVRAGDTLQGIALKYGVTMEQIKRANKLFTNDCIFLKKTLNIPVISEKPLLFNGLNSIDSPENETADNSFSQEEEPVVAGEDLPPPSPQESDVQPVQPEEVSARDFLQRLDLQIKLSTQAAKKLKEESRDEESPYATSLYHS
UniProt O43561: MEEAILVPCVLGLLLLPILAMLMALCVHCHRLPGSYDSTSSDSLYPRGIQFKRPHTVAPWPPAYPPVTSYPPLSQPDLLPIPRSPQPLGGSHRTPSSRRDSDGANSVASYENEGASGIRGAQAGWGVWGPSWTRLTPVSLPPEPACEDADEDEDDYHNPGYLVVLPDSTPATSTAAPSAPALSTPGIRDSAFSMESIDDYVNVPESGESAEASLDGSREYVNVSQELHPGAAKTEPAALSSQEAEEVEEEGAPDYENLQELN
UniProt Q71RC2, whole entry: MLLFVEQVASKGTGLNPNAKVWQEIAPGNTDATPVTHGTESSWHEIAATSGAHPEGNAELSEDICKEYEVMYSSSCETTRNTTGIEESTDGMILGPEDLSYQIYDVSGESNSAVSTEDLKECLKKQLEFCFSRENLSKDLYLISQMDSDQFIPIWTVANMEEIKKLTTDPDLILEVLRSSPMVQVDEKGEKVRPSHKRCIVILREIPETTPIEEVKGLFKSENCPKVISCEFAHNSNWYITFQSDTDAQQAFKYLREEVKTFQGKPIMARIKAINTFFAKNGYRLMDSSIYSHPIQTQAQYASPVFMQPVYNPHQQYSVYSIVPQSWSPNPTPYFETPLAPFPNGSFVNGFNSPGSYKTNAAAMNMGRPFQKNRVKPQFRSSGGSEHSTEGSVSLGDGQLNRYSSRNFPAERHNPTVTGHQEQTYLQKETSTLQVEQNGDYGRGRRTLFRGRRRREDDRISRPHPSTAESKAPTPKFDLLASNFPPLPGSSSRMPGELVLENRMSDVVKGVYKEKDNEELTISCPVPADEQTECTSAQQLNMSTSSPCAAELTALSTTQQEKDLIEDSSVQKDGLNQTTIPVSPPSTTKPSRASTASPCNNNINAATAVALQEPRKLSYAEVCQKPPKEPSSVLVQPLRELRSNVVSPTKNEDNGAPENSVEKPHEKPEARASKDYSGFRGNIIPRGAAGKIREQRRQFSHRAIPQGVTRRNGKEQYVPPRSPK
UniProt O43766: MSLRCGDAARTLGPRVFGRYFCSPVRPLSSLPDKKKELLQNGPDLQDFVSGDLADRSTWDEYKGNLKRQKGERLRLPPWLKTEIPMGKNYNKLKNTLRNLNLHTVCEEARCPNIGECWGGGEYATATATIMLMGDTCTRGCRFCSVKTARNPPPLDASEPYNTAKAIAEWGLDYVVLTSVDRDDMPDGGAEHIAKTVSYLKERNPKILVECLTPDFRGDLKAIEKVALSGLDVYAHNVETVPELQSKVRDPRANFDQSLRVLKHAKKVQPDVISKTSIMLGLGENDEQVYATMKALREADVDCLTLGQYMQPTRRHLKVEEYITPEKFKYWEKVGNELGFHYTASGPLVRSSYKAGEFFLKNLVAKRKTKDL
UniProt Q14114: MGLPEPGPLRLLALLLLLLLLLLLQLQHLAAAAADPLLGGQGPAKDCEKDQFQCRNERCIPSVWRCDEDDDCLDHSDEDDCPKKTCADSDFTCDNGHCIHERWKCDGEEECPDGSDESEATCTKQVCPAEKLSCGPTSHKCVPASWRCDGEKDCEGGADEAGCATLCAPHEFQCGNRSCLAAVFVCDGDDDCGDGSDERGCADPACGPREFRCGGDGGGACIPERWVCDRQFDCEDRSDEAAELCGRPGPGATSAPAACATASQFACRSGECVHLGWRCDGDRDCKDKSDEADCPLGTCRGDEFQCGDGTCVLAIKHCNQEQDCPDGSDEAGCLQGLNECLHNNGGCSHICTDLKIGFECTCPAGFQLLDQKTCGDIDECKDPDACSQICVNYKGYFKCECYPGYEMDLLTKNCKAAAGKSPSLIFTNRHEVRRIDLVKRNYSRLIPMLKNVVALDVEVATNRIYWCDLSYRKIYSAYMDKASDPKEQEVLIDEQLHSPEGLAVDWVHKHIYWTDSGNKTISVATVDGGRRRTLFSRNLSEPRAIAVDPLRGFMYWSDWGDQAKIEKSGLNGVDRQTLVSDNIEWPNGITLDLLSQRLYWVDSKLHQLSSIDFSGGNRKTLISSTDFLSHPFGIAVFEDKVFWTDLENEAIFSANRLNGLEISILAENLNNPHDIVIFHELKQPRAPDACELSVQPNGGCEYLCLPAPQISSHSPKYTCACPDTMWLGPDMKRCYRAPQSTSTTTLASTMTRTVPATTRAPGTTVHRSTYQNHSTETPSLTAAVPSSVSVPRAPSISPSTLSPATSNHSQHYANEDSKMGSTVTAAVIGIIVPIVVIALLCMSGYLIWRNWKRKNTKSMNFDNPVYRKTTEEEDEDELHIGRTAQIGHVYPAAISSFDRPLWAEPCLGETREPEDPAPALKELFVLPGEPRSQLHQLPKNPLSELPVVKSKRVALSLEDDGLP
UniProt Q9Y2L5: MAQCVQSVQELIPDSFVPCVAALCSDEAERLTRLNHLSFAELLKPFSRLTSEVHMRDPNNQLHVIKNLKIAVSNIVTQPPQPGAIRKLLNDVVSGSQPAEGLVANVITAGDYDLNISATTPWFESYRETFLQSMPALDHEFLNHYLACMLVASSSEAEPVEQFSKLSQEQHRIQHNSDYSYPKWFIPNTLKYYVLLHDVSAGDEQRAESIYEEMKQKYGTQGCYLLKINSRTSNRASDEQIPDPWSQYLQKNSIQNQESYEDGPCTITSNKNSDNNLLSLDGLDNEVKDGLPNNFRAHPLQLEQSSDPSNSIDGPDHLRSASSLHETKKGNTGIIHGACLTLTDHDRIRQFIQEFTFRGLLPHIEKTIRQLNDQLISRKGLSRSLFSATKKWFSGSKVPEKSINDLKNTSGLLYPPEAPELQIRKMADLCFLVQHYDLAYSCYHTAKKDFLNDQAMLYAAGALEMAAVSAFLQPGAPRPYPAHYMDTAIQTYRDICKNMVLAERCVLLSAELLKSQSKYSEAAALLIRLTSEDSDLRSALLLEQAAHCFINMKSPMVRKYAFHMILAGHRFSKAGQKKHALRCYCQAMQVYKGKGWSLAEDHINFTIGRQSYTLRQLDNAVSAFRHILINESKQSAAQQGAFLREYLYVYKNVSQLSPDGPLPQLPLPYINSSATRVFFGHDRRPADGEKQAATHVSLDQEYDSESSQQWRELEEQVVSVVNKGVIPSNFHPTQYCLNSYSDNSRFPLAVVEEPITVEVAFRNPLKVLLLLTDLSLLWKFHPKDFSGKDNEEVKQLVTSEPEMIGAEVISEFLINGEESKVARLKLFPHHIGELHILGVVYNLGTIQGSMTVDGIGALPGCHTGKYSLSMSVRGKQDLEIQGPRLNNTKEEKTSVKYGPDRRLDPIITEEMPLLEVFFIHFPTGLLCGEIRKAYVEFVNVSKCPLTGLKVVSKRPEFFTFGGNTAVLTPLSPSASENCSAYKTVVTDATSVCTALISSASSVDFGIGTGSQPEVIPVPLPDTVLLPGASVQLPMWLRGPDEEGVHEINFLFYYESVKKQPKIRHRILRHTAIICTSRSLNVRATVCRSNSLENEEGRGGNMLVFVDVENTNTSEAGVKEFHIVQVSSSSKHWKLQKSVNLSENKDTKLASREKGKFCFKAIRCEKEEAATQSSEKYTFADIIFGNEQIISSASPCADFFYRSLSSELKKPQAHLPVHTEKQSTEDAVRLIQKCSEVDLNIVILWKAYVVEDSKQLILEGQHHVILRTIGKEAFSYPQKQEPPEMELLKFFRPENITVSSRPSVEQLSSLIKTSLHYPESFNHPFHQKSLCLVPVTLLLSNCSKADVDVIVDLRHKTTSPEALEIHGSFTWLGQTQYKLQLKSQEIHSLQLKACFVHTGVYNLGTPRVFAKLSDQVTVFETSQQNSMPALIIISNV

Each target was assayed with COc1ccc(Cn2ccc3ccc(C(=O)NO)cc32)cc1 (assay: dose-dependent thermal stabilisation call (2D-TPP, DLPTP, 10% FDR) (binary (1 = stabilised)); higher = stabilised by the compound). Conditions: system: HL-60 intact cells; concentration range 0.04-10 µM.

Target	dose-dependent thermal stabilisation call
LOC728944	inactive: 0
LLGL1 (UniProt Q15334)	inactive: 0
KPNA4 (UniProt O00629)	inactive: 0
KIAA1618 (UniProt Q63HN8)	inactive: 0
LOC442497	inactive: 0
KIF22 (UniProt Q14807)	inactive: 0
LGALS1 (UniProt P09382)	inactive: 0
LDLRAP1 (UniProt Q5SW96)	inactive: 0
MAK10 (UniProt Q5VZE5)	inactive: 0
LRIG2 (UniProt O94898)	inactive: 0
LMNB1 (UniProt P20700)	inactive: 0
KIAA1602 (UniProt Q9HCH0)	inactive: 0
LARP7 (UniProt Q4G0J3)	inactive: 0
KIAA1967 (UniProt Q8N163)	inactive: 0
MAN2B1 (UniProt O00754)	inactive: 0
MACF1	inactive: 0
LAT2 (UniProt Q9GZY6)	inactive: 0
KTELC1 (UniProt Q8NBL1)	inactive: 0
LOH12CR1 (UniProt Q969J3)	inactive: 0

Target	dose-dependent thermal stabilisation call
LYSMD2 (UniProt Q8IV50)	inactive: 0
LYRM2 (UniProt Q9NU23)	inactive: 0
KRI1 (UniProt Q8N9T8)	inactive: 0
LASS2 (UniProt Q96G23)	inactive: 0
KPTN (UniProt Q9Y664)	inactive: 0
LAT (UniProt O43561)	inactive: 0
LOC100134303	inactive: 0
LAMP1 (UniProt P11279)	active: 1
KPNA2 (UniProt P52292)	inactive: 0
LARP4 (UniProt Q71RC2)	inactive: 0
LASS6 (UniProt Q6ZMG9)	inactive: 0
LIAS (UniProt O43766)	inactive: 0
LSG1 (UniProt Q9H089)	inactive: 0
LETM1 (UniProt O95202)	inactive: 0
LMBR1 (UniProt Q8WVP7)	inactive: 0
LOC152217	inactive: 0
LRP8 (UniProt Q14114)	inactive: 0
KIAA1012 (UniProt Q9Y2L5)	inactive: 0
LRSAM1 (UniProt Q6UWE0)	inactive: 0

For convenience, part of the list above.
Target	dose-dependent thermal stabilisation call
KPNA2 (UniProt P52292)	inactive: 0
LARP4 (UniProt Q71RC2)	inactive: 0
